What was measured:
MDAMB231 = experiment: Cytotoxicity, MTT assay, MDAMB231; format: cell-based
Procedure: (§1) HeLa (Cervical cancer cell line), MDA-MB-231 (Breast cancer cell line) and HaCaT (Human keratinocytes) cells were maintained in growth medium consisting of Dulbecco's Modified Eagle's Medium (DMEM, Gibco, India) with high glucose, supplemented with 10% FBS and 1% penicillin-streptomycin. The cells were grown in […] flasks (BD Falcon) and passaged every three days. All culture reagents were purchased from Thermofisher scientific. The serum free media was used to eliminate any confounding effects from serum adsorption to the nanotubes. Within the time-period (5 h) of the experiment, no adverse cellular responses were observed from serum deprivation or serum shock after a transfer from serum containing growth media.
(§2) Cytotoxicity of nanotube, DOX loaded nanotube and free DOX were assessed in HeLa and MDAMB231 using the MTT assay. About 5×10^3 cells were seeded per well of a 96-well plate and allowed to attach during incubation for 24 h in a humidified incubator at 37° C. Cells were treated with different concentrations of nanotubes, free DOX or DOX loaded nanotubes ranging from 0.2 to 6.4 μg/ml. Four hours before termination of the assay, MTT was added. Mitochondria of viable cells […] MTT to produce purple Formazan crystals. […] The absorbance of each well was measured at 570 nm using a microplate reader (Synergy HT, BioTek Instrument Inc., Winooski Vt.). […]

HeLa = experiment: Cytotoxicity, MTT assay, HeLa; format: cell-based
Procedure: as §1, §2

Q: With `COc1cccc2c1C(=O)c1c(O)c3c(c(O)c1C2=O)C[C@@](O)(C(=O)CO)C[C@@H]3O[C@H]1C[C@H](N)[C@H](O)[C@H](C)O1.Cl` [free DOX, Doxorubicin hydrochloride] as the compound, how does the IC50 (MDAMB231) read?
A: 2.3 µg/mL

Q: What about the IC50 (HeLa) of the same compound?
A: 0.45 µg/mL
